The record followed here is PMC3045356.

By UniProt entry, the sequences of proteins in these tests, tags left out. Where a name states a change or a piece, a line headed by the entry shows the natural chain unless it says otherwise.
UniProt P50591: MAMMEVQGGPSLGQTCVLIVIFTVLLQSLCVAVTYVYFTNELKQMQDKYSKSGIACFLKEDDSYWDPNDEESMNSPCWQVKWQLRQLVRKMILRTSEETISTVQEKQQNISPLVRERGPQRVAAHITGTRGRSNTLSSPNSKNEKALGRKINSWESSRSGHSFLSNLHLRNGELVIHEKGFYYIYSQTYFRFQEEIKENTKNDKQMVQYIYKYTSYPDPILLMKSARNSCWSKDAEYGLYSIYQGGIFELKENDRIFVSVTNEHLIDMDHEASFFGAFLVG
UniProt Q14790: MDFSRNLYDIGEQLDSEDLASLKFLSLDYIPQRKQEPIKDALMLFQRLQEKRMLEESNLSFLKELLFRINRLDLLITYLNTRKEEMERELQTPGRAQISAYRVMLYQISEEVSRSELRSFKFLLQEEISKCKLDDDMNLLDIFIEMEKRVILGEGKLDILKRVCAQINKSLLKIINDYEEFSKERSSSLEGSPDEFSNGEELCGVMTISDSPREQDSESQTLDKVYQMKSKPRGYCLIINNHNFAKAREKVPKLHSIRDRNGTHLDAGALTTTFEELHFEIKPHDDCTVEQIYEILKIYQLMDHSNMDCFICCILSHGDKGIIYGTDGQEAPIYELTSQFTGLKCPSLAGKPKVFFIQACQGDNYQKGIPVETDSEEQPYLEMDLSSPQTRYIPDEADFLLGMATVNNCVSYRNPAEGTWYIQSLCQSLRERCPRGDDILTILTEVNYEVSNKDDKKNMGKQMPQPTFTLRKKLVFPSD
UniProt Q13158: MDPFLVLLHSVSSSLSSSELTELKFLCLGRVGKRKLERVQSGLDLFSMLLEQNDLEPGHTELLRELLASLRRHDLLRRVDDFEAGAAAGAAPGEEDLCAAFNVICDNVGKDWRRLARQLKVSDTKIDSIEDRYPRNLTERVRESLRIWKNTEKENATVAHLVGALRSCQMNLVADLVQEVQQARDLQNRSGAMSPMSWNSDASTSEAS

The target of the experiment is Recombinant human soluble flag-tagged TRAIL (human) (UniProt P50591). The experiment is described as follows: co-IP; TRAIL-DISC: SW948 or SW948-TR cells stimulated 30 min at 37°C with 500 ng/ml Flag-tagged TRAIL premixed with 1.5 μg/ml anti-Flag M2; lysis in 1% Nonidet P-40, 150 mM NaCl, 30 mM Tris-HCl pH 7.5; precipitated with protein-A sepharose; Western blot for DR4, DR5, FADD, caspase 8, c-FLIP; only the target purified. (In western blotting, separated proteins are transferred to a membrane and probed.)

These are yes or no findings as the source states them, for the method shown. Binding seen in cells or lysates may run through a third protein. Binding can be weak; no strength is given.

With “Caspase 8 (from UniProt Q14790 1-479) (enzyme)”, the binding entry is “binds”. To FADD (from UniProt Q13158 1-208) belongs “binds”.
